Reference: patent US20170045513A1, “METHODS OF DIAGNOSING CELIAC DISEASE USING IP-10” (ImmusanT, Inc., priority 2014, published 2017)
Non-standard residues stand in square brackets, D forms with d. pGlu = O=C1CC[C@@H](C(=O)O)N1

Legend:
Format in all cases: cell-based, human
gluten-reactive T cells [1] = assay: 96-well plate whole blood cytokine release, IP-10 by MAGPIX multiplex bead assay; conditions: n = 10, rank of mean % max among 17 peptide preparations
gluten-reactive T cells [2] = assay: Overnight IFNγ ELISpot assay with fresh PBMC; conditions: n = 5, rank of mean % max among 17 peptide preparations
Procedure: HLA-DQ2.5-positive celiac disease subjects on gluten-free diet were used in this study. Blood was collected immediately before and 6 days after commencing 3-day oral gluten challenge. Whole blood or PBMCs were incubated with pools or single peptides derived from gluten or recall antigens. IFNγ and IP-10 levels were measured in plasma from the whole blood that was incubated in 96-well plates with peptides or peptide pools. Plasma cytokine/chemokine levels were measured by MAGPIX® multiplex bead assay (IFNγ and IP-10) or by ELISA (IFNγ and IP-10), and PBMC separated from the same blood sample were incubated in overnight IFNγ ELISpot assays.
Overnight IFNγ ELISpot assays (Human IFN-γ ELISpotPRO kit, transparent, ALP; Mabtech AB, #3420-2APT-10) were performed using PBMC freshly separated from heparinized blood diluted 1:1 in PBS with 2% fetal bovine serum (Stemcell Technologies #07905; Vancouver, BC, V5Z 1B3, Canada) overlaid on density gradient medium (Ficoll-Paque™ PLUS; GE Healthcare Lice Sciences #:17-1440-02) in SepMate™-50 tubes (Stemcell Technologies #15460). PBMC (8 million/mL) were resuspended in serum-free medium with gentamicin and phenol red (X-VIVO™15; Lonza, Walkersville Mass. 21793). PBMC (0.4 million/50 pt/well) and incubated with 50 μL 80% X-vivo15, 0.2% DMSO and 20% PBS in three triplicate wells (“medium only”), or with 50 μL PHA-L 20 μg/ml or peptide at 2× final concentration in 80% X-vivo15, 0.2% DMSO and 20% PBS. Peptide solutions to be added to individual ELISpot wells were prepared in 96-well U-bottom plates (60 pt/well) that were then sealed with adhesive ELISA plate cover slips before replacing the plastic lid and being frozen at −80° C. 96-well plates containing peptide solutions were thawed at room temperature for 10 min while being centrifuged at 300 g immediately prior to being added to ELISpot wells. Peptide pools and mitogen were assessed in triplicate wells, and individual peptides were assessed in duplicate wells. X-VIVO™15 (50 μL) was incubated with 80% X-vivo15, 0.2% DMSO and 20% PBS (50 μL) in triplicate wells (“no PBMC” control). A Zeiss automated ELISpot counter was used to determine spot forming units (SFU) per well (Zellnet Inc., Fort Lee, N J 07024). Laboratory staff were unaware of the arrangement of peptide solutions in ELISpot wells during assay setup and plate counting.

gluten-reactive T cells [3] = assay: 96-well plate whole blood cytokine release, IFNγ by MAGPIX multiplex bead assay; conditions: n = 8, rank of mean % max among 17 peptide preparations

Substance	IP-10 WB MAGPIX (rank) (gluten-reactive T cells [1])	IFNγ ELISpot (rank) (gluten-reactive T cells [2])	IFNγ WB MAGPIX (rank) (gluten-reactive T cells [3])	IP-10 WB MAGPIX (rank) (gluten-reactive T cells [1]; listed as Peptide 2*)	IFNγ ELISpot (rank) (gluten-reactive T cells [2]; listed as Peptide 2*)	IFNγ WB MAGPIX (rank) (gluten-reactive T cells [3]; listed as Peptide 2*)
[pGlu]PEQPEQPFPEQPQQ-NH2 [Peptide 11]	16	14	17	–	–	–
[pGlu]QPFPEQPEQIIPQQP-NH2 [Peptide 12]	14	15	16	–	–	–
[pGlu]GQQGYYPTSPQQSG-NH2 [Peptide 10]	15	12	14	–	–	–
[pGlu]PEQPIPEQPQPYPQQ-NH2 [Peptide 3]	2	2	2	–	–	–
[pGlu]QPFPQPEQPIPVQPEQS-NH2 [Peptide 4]	9	6	10	–	–	–
[pGlu]QPFPQPEQPFPWQP-NH2 [Peptide 2, two preparations tested separately: CSBio (5 μM) and Pepscan re-synthesis (10 μg/mL)]	5	9	9	4	4	6
[pGlu]PEQPFPEQPIPEQPQPYP-NH2 [Peptide 14]	1	1	1	–	–	–
[pGlu]QPFPQPELPYPYPQ-NH2 [Peptide 16]	7	5	4	–	–	–
(pE)QPPFSEQEQPVLPQ-amide (N-terminal pyroglutamate; C-terminal amide) [Peptide 13]	13	16	13	–	–	–
[pGlu]PQPYPEQPQPFPQQ-NH2 [Peptide 8]	8	3	8	–	–	–
[pGlu]QPYPQPELPYPQPQ-NH2 [Peptide 15]	10	11	7	–	–	–
[pGlu]QPFPQPEQPFPLQPEQP-NH2 [Peptide 6]	6	8	5	–	–	–
[pGlu]SGEGSFQPSQENPQ-NH2 [Peptide 9]	17	17	15	–	–	–
[pGlu]QPFPQPEQPTPIQPEQP-NH2 [Peptide 5]	11	7	11 (11)	–	–	–
[pGlu]LQPFPQPELPYPQPQ-NH2 [Peptide 1]	3	10	3	–	–	–
[pGlu]QPFPQPEQPFSQQ-NH2 [Peptide 7]	12 (12)	13	12	–	–	–
